Values from PubChem BioAssay AID686943 (Drosophila RNAi Screening Center, 2013).
The deposit covers about 23,000 reagents; below is an unselected part of those with a known target gene and a result. 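Extra replicates exist only for a retested subset of genes; insulin dose and duration not given; both raised and lowered dpERK matter.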 Reagents against one gene are numbered here. No sequences are given here. Not given: the amount of reagent, the time to read-out.

Screen: 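Search across the genome for regulators of signalling from receptor tyrosine kinase to ERK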 (primary screen)
Cells: Drosophila S2R+ haemocyte-like cells expressing YFP-tagged ERK (Rolled)
Reagent: long dsRNA against Drosophila genes
Conditions: insulin stimulation versus unstimulated cells; dose and duration not given
Measured: 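Antibody staining for doubly phosphorylated ERK divided by ERK-YFP signal, as plate z-scores, in insulin-treated and untreated cells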
Direction: replicate 1, z-score of dpERK with insulin and replicate 2, z-score of dpERK with insulin: higher = more active ERK per ERK-YFP after insulin; replicate 1, z-score of dpERK under basal conditions: higher = more basal active ERK per ERK-YFP; replicate 1, z-score of ERK-YFP with insulin: higher = more YFP-tagged ERK signal

The first 3 entries, ahead of the listing:
gene | reagent no. | replicate 1, z-score of dpERK with insulin | replicate 2, z-score of dpERK with insulin | replicate 1, z-score of dpERK under basal conditions | replicate 1, z-score of ERK-YFP with insulin
CG18343 | 1 | 0.04 | 1.13 | -0.55 | 0.25
Ugt37C2 | 1 | -1.13 | 0.19 | 0.66 | 0.58
CG11313 | 1 | 0.52 | -0.21 | -0.27 | 0.69

The listing, repeating the preview:
gene | reagent no. | replicate 1, z-score of dpERK with insulin | replicate 2, z-score of dpERK with insulin | replicate 1, z-score of dpERK under basal conditions | replicate 1, z-score of ERK-YFP with insulin
CG18343 | 1 | 0.04 | 1.13 | -0.55 | 0.25
Ugt37C2 | 1 | -1.13 | 0.19 | 0.66 | 0.58
CG11313 | 1 | 0.52 | -0.21 | -0.27 | 0.69
CG42232 | 1 | -0.44 | 0.08 | 0.44 | -0.93
CG42232 | 2 | 0.31 | 0.32 | -0.73 | 0.06
Ctns | 1 | -1.24 | -0.09 | -1.23 | -1.11
RpLP0-like | 1 | -0.37 | -0.38 | -1.56 | 0.69
eIF4G1 | 1 | -1.71 | -2.43 | 2.31 | 1.18
Ank | 1 | -0.03 | -0.51 | 0.26 | 0.9
Paris | 1 | 0.66 | -0.43 | 1.45 | -0.32
Scox | 1 | -0.46 | -0.07 | -0.09 | 0.84
TppII | 1 | -0.91 | -0.38 | -0.57 | 1.15
Dsk | 1 | -0.51 | -0.23 | 0.31 | 0.93
Ugt302C1 | 1 | -0.38 | 0.57 | -0.71 | -0.11
CheB53b | 1 | 0.38 | 0.62 | 0.73 | 1.08
Vps53 | 1 | 1.31 | 1.16 | 0.27 | -0.15
Paf-AHalpha | 1 | 0.48 | 0.44 | -0.25 | 0.21
CG9400 | 1 | -0.35 | -0.25 | -0.26 | -0.29
CG14282 | 1 | -0.04 | -0.25 | 0.71 | 0.05
MtnA | 1 | 0.48 | 0.02 | -0.33 | 2.29
CG17260 | 1 | -0.26 | 0.33 | -0.13 | 0.51
CG11263 | 1 | 0.28 | 0.12 | 0.59 | 0.21
cocoon | 1 | -0.4 | 0.38 | 0.37 | 0.22
Usp8 | 1 | 0.04 | 1.82 | -0.05 | 1.9
CG42258 | 1 | 0.87 | 2 | 1.09 | -4.13
CG42258 | 2 | -2.01 | -0.36 | -0.05 | -0.19
CG14383 | 1 | 0.63 | 0.89 | -0.44 | -0.31
Spag1 | 1 | 0.48 | 1.02 | 0.2 | 0.19
Nsf2 | 1 | -0.65 | 0.21 | -0.89 | 1.15
yem | 1 | 0.21 | -0.12 | -0.09 | -0.73
yem | 2 | -1.13 | -0.35 | -1.13 | -0.33
CG13360 | 1 | 1.54 | 0.68 | 0.09 | 0.34
CG31988 | 1 | 0.92 | 1.01 | 3.06 | 0.4
crp | 1 | 7.85 | 6.26 | -1.48 | -6.1
CG4036 | 1 | 0.1 | -0.26 | -0.08 | 0.02
CG13364 | 1 | 0.32 | 0.58 | 0.34 | 0.62
CG13364 | 2 | -2.38 | -0.22 | -0.95 | 0.93
CG3088 | 1 | -0.22 | 0.1 | 0.42 | 0.1
CG1575 | 1 | 0.22 | 0.81 | -0.93 | 0.09
